These are yes or no findings as the source states them, for the method shown. In cells and extracts the contact can be indirect. A result given as binding can be weak or reduced; the word gives no strength. Where a sequence is shown, tags or fusion partners need not be part of it.
Molecular target: T1, Flag-tagged dual-specificity phosphatase 16 (DUSP16) (human) (UniProt Q9BY84)
T1 sequence: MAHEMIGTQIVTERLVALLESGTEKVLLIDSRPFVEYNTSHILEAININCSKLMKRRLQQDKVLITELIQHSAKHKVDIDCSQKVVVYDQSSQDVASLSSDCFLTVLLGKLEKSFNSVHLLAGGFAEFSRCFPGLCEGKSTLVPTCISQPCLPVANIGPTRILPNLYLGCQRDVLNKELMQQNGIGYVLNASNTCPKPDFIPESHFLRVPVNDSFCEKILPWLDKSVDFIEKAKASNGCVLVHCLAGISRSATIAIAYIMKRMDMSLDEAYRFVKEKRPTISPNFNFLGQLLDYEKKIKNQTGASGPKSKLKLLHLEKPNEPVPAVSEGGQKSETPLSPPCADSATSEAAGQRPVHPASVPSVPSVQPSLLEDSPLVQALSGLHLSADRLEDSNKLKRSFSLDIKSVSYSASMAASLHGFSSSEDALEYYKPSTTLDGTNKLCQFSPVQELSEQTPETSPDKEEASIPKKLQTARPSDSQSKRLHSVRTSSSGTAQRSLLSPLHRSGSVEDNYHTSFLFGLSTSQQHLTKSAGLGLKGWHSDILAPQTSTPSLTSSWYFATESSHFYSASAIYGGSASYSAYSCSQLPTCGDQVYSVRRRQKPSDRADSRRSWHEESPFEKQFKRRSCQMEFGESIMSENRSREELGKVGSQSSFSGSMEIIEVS
Experiment: co-IP; Flag-tagged DUSP16 expression plasmid transfected into HEK293 T cells; DUSP16 immunoprecipitated; endogenous JNK, p38 and BAX examined in the precipitate

Row | binding | Substance
1 | binds | c-Jun N-terminal kinase (JNK), endogenous (human (endogenous in HEK293 T)) (enzyme)
2 | binds | p38 kinase, endogenous (human (endogenous in HEK293 T)) (enzyme)
